Assay results: patent US9429568B2, “Silaanthracene as a red and near infrared sensor and a method to manufacture such a sensor” (Board of Trustees of Southern Illinois University on Behalf …, priority 2010, dated 2016)

Experiment: Hypochlorous acid (HOCl) sensor: fluorescence and absorbance response to added HOCl
Type: physicochemical
Details: 0.5 μM compound
Experimental: A solution of compound 3 from Table 2 herein was formed at a concentration of 0.5 μM and at a pH of 7.4. HOCl was added to the solution at concentrations ranging up to 2 μM and the fluorescence of the resulting solutions was measured after exposure to an excitatory light pulse of 655 nm.
A solution of compound 29 from Table 5 herein was formed at a concentration of 0.5 μM and at a pH of 7.4. HOCl was added to the solution at concentrations ranging up to 5 μM and the fluorescence of the resulting solutions was measured after exposure to an excitatory light pulse of 580 nm.

SMILES | intensity of fluorescence at 663 nm as a function of HOCl concentration (pH 7.4, HOCl up to 2 μM, excitation 655 nm) | intensity of fluorescence at 605 nm and 570 nm as a function of HOCl concentration (pH 7.4, HOCl up to 5 μM)
CN(C)c1ccc2c(c1)[Si](C)(C)c1cc(N(C)C)ccc1C21SCc2ccccc21 [Compound 3] | linear relationship | –
C[Si]1(C)c2cc(O)ccc2C2(c3ccccc3C(=O)N2CCN2CCNCCNCCNCC2)c2ccc(O)cc21 [Compound 29] | – | linear relationship
